The supplement of paper PMC4604168 (melanoma cell lines)
The other results are listed elsewhere or left out. Repeats are few or missing, and single values can be far off.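 Imaging used 1,536-well plates; nuclei positive for cleaved PARP by antibody were divided by total DNA-stained nuclei to yield the apoptosis fraction. Doses for screening kept most cells viable, and cell lines differ markedly in resting and induced cleaved-PARP levels.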

What was measured:
Assay in all cases: cleaved PARP positive nuclei fraction relative to DMSO control; melanoma cells; higher = more apoptosis
Details in all cases: library dose: low library concentration; 72 h
CBRC034 = test system: CBRC034 (line from a melanoma biopsy)
COLO792 = test system: COLO792
COLO800 = test system: COLO800
COLO829 = test system: COLO829
G361 = test system: G361
IPC-298 = test system: IPC-298
IST-MEL1 = test system: IST-MEL1
LB2518-MEL = test system: LB2518-MEL
LOXIMVI = test system: LOXIMVI
MEL-HO = test system: MEL-HO

Structure (SMILES) | cleaved PARP positive nuclei fraction (CBRC034) | cleaved PARP positive nuclei fraction (COLO792) | cleaved PARP positive nuclei fraction (COLO800) | cleaved PARP positive nuclei fraction (COLO829) | cleaved PARP positive nuclei fraction (G361) | cleaved PARP positive nuclei fraction (IPC-298) | cleaved PARP positive nuclei fraction (IST-MEL1) | cleaved PARP positive nuclei fraction (LB2518-MEL) | cleaved PARP positive nuclei fraction (LOXIMVI) | cleaved PARP positive nuclei fraction (MEL-HO)
C#Cc1cccc(Nc2ncnc3cc(OCCOC)c(OCCOC)cc23)c1 [erlotinib] + C[As](C)SC[C@H](NC(=O)CC[C@H](N)C(=O)O)C(=O)NCC(=O)O [Darinaparsin] (first compound 0.8 µM, partner dose 0.4 µM) | 63.5% | 250% | 165% | 107% | 113% | 94.4% | 90.5% | 128% | 99.6% | 72.2%
NC(=O)c1ccc(N(C(N)=O)c2c(F)cccc2F)nc1-c1ccc(F)cc1F + N.N.[Cl][Pt][Cl] [cisplatin] (first compound 0.4 µM, partner dose 1.6 µM) | 113% | 93.6% | 84.2% | 105% | 99.1% | 107% | 61.6% | 110% | 387% | 55.2%
C[C@]12O[C@H](C[C@]1(O)CO)n1c3ccccc3c3c4c(c5c6ccccc6n2c5c31)CNC4=O [Lestaurtinib] + CNC(=O)c1cc(Oc2ccc(NC(=O)Nc3ccc(Cl)c(C(F)(F)F)c3)cc2)ccn1 [sorafenib] (first compound 0.004 µM, partner dose 0.4 µM) | 72.5% | 14.6% | 86.6% | 56.7% | 75.3% | 63.5% | 32.2% | 228% | 63.8% | 195%
N.N.[Cl][Pt][Cl] [cisplatin] + CNC(=O)c1cc(Oc2ccc(NC(=O)Nc3ccc(Cl)c(C(F)(F)F)c3)cc2)ccn1 [sorafenib] (first compound 1.6 µM, partner dose 0.4 µM) | 49.9% | 79.7% | 105% | 90.5% | 32.8% | 93.3% | 69.4% | 24.4% | 132% | 96.7%
COc1ccc(C2=N[C@@H](c3ccc(Cl)cc3)[C@@H](c3ccc(Cl)cc3)N2C(=O)N2CCNC(=O)C2)c(OC(C)C)c1 [Nutlin-3] + C[C@]12O[C@H](C[C@]1(O)CO)n1c3ccccc3c3c4c(c5c6ccccc6n2c5c31)CNC4=O [Lestaurtinib] (first compound 0.1 µM, partner dose 0.004 µM) | 75.7% | 93.1% | 62.2% | 56.4% | 62.8% | 83.6% | 184% | 120% | 186% | 59.1%
Cc1ccc(Nc2nccc(N(C)c3ccc4c(C)n(C)nc4c3)n2)cc1S(N)(=O)=O [Pazopanib] + C[C@]12O[C@H](C[C@]1(O)CO)n1c3ccccc3c3c4c(c5c6ccccc6n2c5c31)CNC4=O [Lestaurtinib] (first compound 0.4 µM, partner dose 0.004 µM) | 125% | 133% | 203% | 111% | 115% | 281% | 90.1% | 114% | 93.3% | 139%
CC(C)C[C@H](NC(=O)[C@H](Cc1ccccc1)NC(=O)c1cnccn1)B(O)O [Bortezomib] + C[As](C)SC[C@H](NC(=O)CC[C@H](N)C(=O)O)C(=O)NCC(=O)O [Darinaparsin] (first compound 0.001 µM, partner dose 0.4 µM) | 326% | 108% | 196% | 268% | 1700% | 155% | 89.7% | 283% | 74% | 71.3%
O=c1[nH]nc(Sc2ncc([N+](=O)[O-])s2)n1-c1ccc2c(c1)OCCO2 + N.N.[Cl][Pt][Cl] [cisplatin] (first compound 0.2 µM, partner dose 1.6 µM) | 95% | 29.1% | 34.2% | 85.3% | 89.9% | 52.7% | 58.6% | 43.3% | 119% | 39.3%
N.N.[Cl][Pt][Cl] [cisplatin] + Cc1nc(Nc2ncc(C(=O)Nc3c(C)cccc3Cl)s2)cc(N2CCN(CCO)CC2)n1 [dasatanib] (first compound 1.6 µM, partner dose 0.004 µM) | 110% | 103% | 133% | 89.6% | 103% | 85.9% | 64.9% | 121% | 187% | 218%
C[C@]12O[C@H](C[C@]1(O)CO)n1c3ccccc3c3c4c(c5c6ccccc6n2c5c31)CNC4=O [Lestaurtinib] + Oc1nc(-c2ccc(C(F)(F)F)cc2)nc2c1CSCC2 [XAV939] (first compound 0.004 µM, partner dose 2 µM) |  | 140% | 26.6% | 79.1% | 150% | 46.2% | 80.9% | 74.6% | 243% | 
